The target of the experiment is T1, Small heterodimer partner (SHP), endogenous in mouse bone marrow-derived macrophages (mouse (endogenous in BMDMs)) (UniProt Q62227).
T1 sequence: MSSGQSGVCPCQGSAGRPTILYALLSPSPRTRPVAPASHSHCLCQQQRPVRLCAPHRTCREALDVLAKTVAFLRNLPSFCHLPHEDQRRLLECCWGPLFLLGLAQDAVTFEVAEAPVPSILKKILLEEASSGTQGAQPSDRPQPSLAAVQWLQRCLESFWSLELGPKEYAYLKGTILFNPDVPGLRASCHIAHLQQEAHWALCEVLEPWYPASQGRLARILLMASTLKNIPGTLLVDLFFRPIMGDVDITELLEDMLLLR
Put plainly: affinity purification with mass spectrometry; LPS-primed BMDMs stimulated with ATP 30 min, NP-40 lysate, immunoprecipitation with anti-SHP 18 h at 4 °C, silver-stained bands excised, ion-trap mass spectrometry.

Amino acid sequences for entries named in this document (tags omitted).
UniProt Q8R4B8: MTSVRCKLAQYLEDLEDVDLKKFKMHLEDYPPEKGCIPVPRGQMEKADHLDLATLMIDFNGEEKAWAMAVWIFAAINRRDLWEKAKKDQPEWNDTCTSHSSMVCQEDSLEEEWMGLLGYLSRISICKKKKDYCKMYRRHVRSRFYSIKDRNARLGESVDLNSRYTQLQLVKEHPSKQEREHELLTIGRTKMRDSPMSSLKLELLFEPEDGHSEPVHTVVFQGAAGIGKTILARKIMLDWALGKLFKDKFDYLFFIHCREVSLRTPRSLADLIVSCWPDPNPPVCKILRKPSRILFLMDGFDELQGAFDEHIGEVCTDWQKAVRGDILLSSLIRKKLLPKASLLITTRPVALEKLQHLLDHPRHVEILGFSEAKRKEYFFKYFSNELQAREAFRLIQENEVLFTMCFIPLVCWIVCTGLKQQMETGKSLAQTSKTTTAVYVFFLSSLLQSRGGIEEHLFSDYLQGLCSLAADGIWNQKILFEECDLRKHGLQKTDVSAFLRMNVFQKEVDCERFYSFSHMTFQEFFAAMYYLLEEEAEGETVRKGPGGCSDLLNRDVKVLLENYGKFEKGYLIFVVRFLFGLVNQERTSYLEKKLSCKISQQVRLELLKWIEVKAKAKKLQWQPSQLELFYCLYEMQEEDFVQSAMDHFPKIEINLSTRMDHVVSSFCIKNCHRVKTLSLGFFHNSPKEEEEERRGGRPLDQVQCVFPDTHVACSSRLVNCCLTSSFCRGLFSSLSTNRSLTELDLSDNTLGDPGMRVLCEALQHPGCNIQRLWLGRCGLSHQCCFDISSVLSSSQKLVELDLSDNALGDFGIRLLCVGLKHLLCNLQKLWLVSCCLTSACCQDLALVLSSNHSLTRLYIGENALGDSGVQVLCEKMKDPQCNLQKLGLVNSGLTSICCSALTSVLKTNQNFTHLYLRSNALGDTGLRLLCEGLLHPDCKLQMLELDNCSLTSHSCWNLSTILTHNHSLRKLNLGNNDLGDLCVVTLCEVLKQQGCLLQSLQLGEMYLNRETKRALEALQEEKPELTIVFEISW

No constants are given. Whether binding was seen depends on the method and setting. In cells and extracts the contact can be indirect. Here binding means that the protein was enriched with, or labelled near, the bait; the list need not be complete.

“NOD-like receptor family, pyrin domain-containing 3 (NLRP3), endogenous in mouse bone marrow-derived macrophages (from UniProt Q8R4B8 1-1033)”: the binding result was “binds”.

Source of the values: paper PMC4347017.
